Taken from: PubChem BioAssay AID1259274 (Sanger Institute, 2017)
The whole screen tested 794 reagents; this is a part drawn at random. In the full data, 11 (1.4%) got an active call. 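Calls rest on knock-down without drug only; synergy scores with anchor drugs were not used for the essential call.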 A number with no mark means an inactive call. Not all columns of the deposit are shown. Not stated in the record: the amount of reagent, the time to read-out.

- Aim: 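Kinase knock-downs that cut colorectal cancer cell viability or boost drug killing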 (primary screen)
- Cells: human RKO colorectal cancer cells
- Knock-down reagent: siRNA pool against human genes
- Challenge: anchor drugs BYL719 at 1 µM, cetuximab at 5 µg/ml or trametinib at 10 nM; DMSO vehicle as the no-drug arm
- Measurement: 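Viability as fraction of non-targeting pool 2 control, averaged across replicates, robust z-score for single knock-down, and a combination synergy score per anchor drug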
- Direction: viability z-score, siRNA alone: higher = more viable cells; low values mean essential gene
- Rule for the call: 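Essential when the robust viability z-score with siRNA only falls below -3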
- Meaning of the calls: active = essential when knocked down alone; inactive = no change alone

With knock-down of AKT1 the results were viability z-score, siRNA alone 1.19.
CDKL1 scored viability z-score, siRNA alone 0.124.
With knock-down of PFKL, the screen gave viability z-score, siRNA alone 0.281.
After knock-down of CDKN1B, the screen gave viability z-score, siRNA alone 0.131.
CERK gave viability z-score, siRNA alone 0.0782.
Against MAP3K7, the values are viability z-score, siRNA alone 1.19.
Knock-down of KSR1 gave: viability z-score, siRNA alone -2.35.
Knock-down of PRKG1 resulted in: viability z-score, siRNA alone 0.915.
With knock-down of CDK18, the record shows viability z-score, siRNA alone -2.7.
For COQ8B the deposit lists viability z-score, siRNA alone 0.79.
Against CRKL the deposit lists viability z-score, siRNA alone 1.19.
For MAP3K2, the values are viability z-score, siRNA alone 0.134.
After knock-down of FASTK, the record shows viability z-score, siRNA alone -0.467.
Against NME3 the deposit lists viability z-score, siRNA alone -0.512.
Knock-down of MLKL resulted in: viability z-score, siRNA alone 0.796.
CDC42BPB gave viability z-score, siRNA alone 0.696.
Depletion of EXOSC10 gave: viability z-score, siRNA alone 0.285.
Against NME7 the deposit lists viability z-score, siRNA alone 0.22.
With knock-down of AGK, the record shows viability z-score, siRNA alone 0.151.
With knock-down of PCBP1, the record shows viability z-score, siRNA alone -1.05.
After knock-down of VRK2, the screen gave viability z-score, siRNA alone 0.394.

Laid out differently: 3 of the entries above.
| gene | viability z-score, siRNA alone |
| --- | --- |
| FASTK | -0.467 |
| NME3 | -0.512 |
| MLKL | 0.796 |

More results follow.
With knock-down of CKMT2 the results were viability z-score, siRNA alone -0.522.
LMTK2 scored viability z-score, siRNA alone -0.875.
Knock-down of ERBB4 resulted in: viability z-score, siRNA alone -0.66.
For CAMKK1, the values are viability z-score, siRNA alone -0.291.
With knock-down of SGK1, the record shows viability z-score, siRNA alone 0.203.
With knock-down of CDC42BPA, the screen gave viability z-score, siRNA alone -1.58.
Knock-down of ROCK2 gave: viability z-score, siRNA alone 0.513.
PRKAG1 gave viability z-score, siRNA alone 0.0967.
EPHA10 scored viability z-score, siRNA alone -0.783.
Knock-down of MAPK15 gave: viability z-score, siRNA alone -0.916.
TCF12 gave viability z-score, siRNA alone -0.672.
KHK gave viability z-score, siRNA alone -0.669.
After knock-down of DCLK1, the screen gave viability z-score, siRNA alone 0.19.
With knock-down of TSSK3, the screen gave viability z-score, siRNA alone -0.0995.
For CDK5R1, the entry reads viability z-score, siRNA alone 0.242.
